# In patent US20040241239A1, “Mixed complexes for masking the taste of bitter active substances” (priority 2001, published 2004):
# Assay: Acceptance test of HMR 3647 (taste of aqueous dispersion in the mouth)
# Format: in vivo
# Conditions: oral application, 1 ml of aqueous dispersion for one minute in the mouth
structure (smiles),measurement,value
CC[C@H]1OC(=O)[C@H](C)C(=O)[C@H](C)[C@@H](O[C@@H]2O[C@H](C)C[C@H](N(C)C)[C@H]2O)[C@](C)(OC)C[C@@H](C)C(=O)[C@H](C)[C@H]2N(CCCCn3cnc(-c4cccnc4)c3)C(=O)O[C@]12C [HMR 3647],concentration starting from which all test persons found the taste unacceptable,≥ 10 µg/mL
same,concentration starting from which the product was found unacceptable,≥ 2.5 µg/mL
